Test system: collagen hydrogel (Type I, rat-tail)
Assay: Step-strain rheological measurement, self-healing of collagen hydrogel
Conditions: 9 micromolar CypA
Description: Another important feature of the dynamic ECMs is their self-healing property, which can be tested using a step-strain rheological measurement. A strong strain is applied to liquify the materials, and the recovery of storage modulus is followed (self-healing) (Fig. 1b). Collagen hydrogel can only partially recover its storage modulus after the first cycle. The rate and extent of recovery were unchanged over the following cycles.
To minimize sample evaporation at 37 °C, a tissue paper wet in HEPEs buffer (10 mM, pH 7.8) was placed inside the H-PTD chamber to increase the humidity. […] The cone and plate were treated with plasma for 5 min to increase the hydrophilicity of the metal surface.

CypA: recombinant cyclophilin A, a PPIase, expressed in E. coli
Storage Modulus, Mean (Time 119.5 min): 6.055 Pa | Storage Modulus, Mean (Time 120 min): 7.357 Pa | Storage Modulus, Mean (Time 120.5 min): 7.231 Pa | Storage Modulus, Mean (Time 121 min): 6.003 Pa | Storage Modulus, Mean (Time 121.5 min): 6.28 Pa | Storage Modulus, Mean (Time 122.5 min): 6.561 Pa | Storage Modulus, Mean (Time 123.5 min): 5.991 Pa | Storage Modulus, Mean (Time 124 min): 6.359 Pa | Storage Modulus, Mean (Time 124.5 min): 6.061 Pa | Storage Modulus, Mean (Time 125 min): 6.287 Pa | Storage Modulus, Mean (Time 125.17 min): 1.06 Pa | Storage Modulus, Mean (Time 125.33 min): 1.01 Pa | Storage Modulus, Mean (Time 125.5 min): 0.9577 Pa | Storage Modulus, Mean (Time 125.67 min): 0.9388 Pa | Storage Modulus, Mean (Time 125.83 min): 0.9204 Pa | Storage Modulus, Mean (Time 126.17 min): 0.89 Pa | Storage Modulus, Mean (Time 126.33 min): 0.872 Pa | Storage Modulus, Mean (Time 126.67 min): 0.8555 Pa | Storage Modulus, Mean (Time 127.17 min): 3.383 Pa | Storage Modulus, Mean (Time 127.67 min): 4.721 Pa | Storage Modulus, Mean (Time 128.17 min): 4.696 Pa | Storage Modulus, Mean (Time 128.67 min): 4.62 Pa | Storage Modulus, Mean (Time 129.17 min): 5.232 Pa | Storage Modulus, Mean (Time 129.67 min): 5.406 Pa | Storage Modulus, Mean (Time 130.17 min): 5.001 Pa | Storage Modulus, Mean (Time 131.17 min): 5.373 Pa | Storage Modulus, Mean (Time 131.67 min): 5.467 Pa | Storage Modulus, Mean (Time 132.17 min): 5.595 Pa | Storage Modulus, Mean (Time 132.67 min): 5.715 Pa | Storage Modulus, Mean (Time 133.17 min): 5.9 Pa | Storage Modulus, Mean (Time 133.67 min): 4.866 Pa | Storage Modulus, Mean (Time 134.17 min): 5.859 Pa | Storage Modulus, Mean (Time 135.17 min): 5.531 Pa | Storage Modulus, Mean (Time 135.67 min): 5.885 Pa | Storage Modulus, Mean (Time 136.17 min): 5.289 Pa | Storage Modulus, Mean (Time 137.17 min): 5.861 Pa | Storage Modulus, Mean (Time 137.67 min): 6.055 Pa | Storage Modulus, Mean (Time 138.17 min): 7.1716 Pa | Storage Modulus, Mean (Time 138.67 min): 5.642 Pa | Storage Modulus, Mean (Time 139.17 min): 5.563 Pa | Storage Modulus, Mean (Time 139.67 min): 6.086 Pa | Storage Modulus, Mean (Time 140.17 min): 5.581 Pa | Storage Modulus, Mean (Time 140.67 min): 5.997 Pa | Storage Modulus, Mean (Time 141.17 min): 6.697 Pa | Storage Modulus, Mean (Time 141.67 min): 6.504 Pa | Storage Modulus, Mean (Time 142.17 min): 6.313 Pa | Storage Modulus, Mean (Time 142.67 min): 5.125 Pa | Storage Modulus, Mean (Time 143.17 min): 5.799 Pa | Storage Modulus, Mean (Time 143.67 min): 6.439 Pa | Storage Modulus, Mean (Time 144.17 min): 6.161 Pa | Storage Modulus, Mean (Time 144.67 min): 6.36 Pa | Storage Modulus, Mean (Time 145.17 min): 6.452 Pa | Storage Modulus, Mean (Time 145.67 min): 6.29 Pa | Storage Modulus, Mean (Time 146.67 min): 6.852 Pa | Storage Modulus, Mean (Time 147.17 min): 6.716 Pa | Storage Modulus, Mean (Time 147.67 min): 6.279 Pa | Storage Modulus, Mean (Time 148.17 min): 6.399 Pa | Storage Modulus, Mean (Time 148.67 min): 6.131 Pa | Storage Modulus, Mean (Time 149.17 min): 7.082 Pa | Storage Modulus, Mean (Time 149.67 min): 6.553 Pa | Storage Modulus, Mean (Time 150.17 min): 7.343 Pa | Storage Modulus, Mean (Time 150.67 min): 6.787 Pa | Storage Modulus, Mean (Time 151.17 min): 7.29 Pa | Storage Modulus, Mean (Time 151.67 min): 6.95 Pa | Storage Modulus, Mean (Time 152.17 min): 6.459 Pa | Storage Modulus, Mean (Time 152.67 min): 6.8231 Pa | Storage Modulus, Mean (Time 153.17 min): 6.988 Pa | Storage Modulus, Mean (Time 153.67 min): 7.667 Pa | Storage Modulus, Mean (Time 154.17 min): 8.095 Pa | Storage Modulus, Mean (Time 154.67 min): 7.332 Pa | Storage Modulus, Mean (Time 155.17 min): 7.02 Pa | Storage Modulus, Mean (Time 155.67 min): 7.432 Pa | Storage Modulus, Mean (Time 156.17 min): 6.372 Pa | Storage Modulus, Mean (Time 156.67 min): 7.863 Pa

Source: publication PMC6370856, “Peptidyl prolyl cis/trans isomerase activity on the cell surface correlates with extracellular matrix development” (Communications Biology, 2019)
